From the supplement of paper PMC10849652
Some of the results follow.

Amino acid sequences for entries named in this document (tags omitted). A change or cut given only in a name is not applied to a line headed by its entry.
UniProt P60842, whole entry, looked up: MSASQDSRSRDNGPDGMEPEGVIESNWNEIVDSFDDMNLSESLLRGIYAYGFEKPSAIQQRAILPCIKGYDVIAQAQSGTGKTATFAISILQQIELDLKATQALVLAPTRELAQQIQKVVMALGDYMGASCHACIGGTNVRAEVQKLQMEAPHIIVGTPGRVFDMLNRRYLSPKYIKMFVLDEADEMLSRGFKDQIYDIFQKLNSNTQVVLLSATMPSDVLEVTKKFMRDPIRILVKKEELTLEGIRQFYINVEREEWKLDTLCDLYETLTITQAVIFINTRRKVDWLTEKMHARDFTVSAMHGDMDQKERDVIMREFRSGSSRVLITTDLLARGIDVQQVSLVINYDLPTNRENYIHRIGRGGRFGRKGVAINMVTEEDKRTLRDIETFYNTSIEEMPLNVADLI
UniProt P06733, whole entry, looked up: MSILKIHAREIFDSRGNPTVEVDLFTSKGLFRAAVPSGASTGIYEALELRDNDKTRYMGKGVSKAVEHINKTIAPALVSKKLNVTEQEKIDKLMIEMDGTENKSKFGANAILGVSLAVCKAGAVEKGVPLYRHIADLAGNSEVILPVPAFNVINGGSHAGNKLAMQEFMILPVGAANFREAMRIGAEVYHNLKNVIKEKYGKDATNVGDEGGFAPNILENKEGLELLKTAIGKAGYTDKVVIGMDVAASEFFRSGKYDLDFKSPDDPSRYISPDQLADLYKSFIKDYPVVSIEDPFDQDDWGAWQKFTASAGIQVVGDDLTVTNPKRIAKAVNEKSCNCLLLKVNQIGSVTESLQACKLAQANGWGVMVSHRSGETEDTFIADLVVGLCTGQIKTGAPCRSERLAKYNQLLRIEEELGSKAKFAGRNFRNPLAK
UniProt Q8NFI3: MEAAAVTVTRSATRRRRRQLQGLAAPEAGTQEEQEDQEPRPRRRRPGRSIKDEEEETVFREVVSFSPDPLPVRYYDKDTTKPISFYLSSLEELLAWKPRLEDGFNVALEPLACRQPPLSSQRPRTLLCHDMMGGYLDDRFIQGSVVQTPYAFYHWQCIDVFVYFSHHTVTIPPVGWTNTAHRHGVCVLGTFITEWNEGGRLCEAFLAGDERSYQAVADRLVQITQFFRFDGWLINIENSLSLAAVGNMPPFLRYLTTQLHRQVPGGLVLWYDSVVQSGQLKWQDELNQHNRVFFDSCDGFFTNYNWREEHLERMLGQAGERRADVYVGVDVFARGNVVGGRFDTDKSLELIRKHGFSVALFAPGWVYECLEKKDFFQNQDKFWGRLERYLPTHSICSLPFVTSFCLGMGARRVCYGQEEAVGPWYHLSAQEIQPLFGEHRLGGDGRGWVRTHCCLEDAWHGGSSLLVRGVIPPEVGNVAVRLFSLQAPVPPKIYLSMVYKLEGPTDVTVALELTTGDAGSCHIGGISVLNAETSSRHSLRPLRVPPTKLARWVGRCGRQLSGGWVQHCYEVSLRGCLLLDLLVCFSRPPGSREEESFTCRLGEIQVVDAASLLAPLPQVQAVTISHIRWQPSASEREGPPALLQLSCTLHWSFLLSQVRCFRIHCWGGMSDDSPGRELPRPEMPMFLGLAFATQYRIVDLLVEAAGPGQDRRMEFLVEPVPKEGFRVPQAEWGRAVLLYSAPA
UniProt Q8N9N8: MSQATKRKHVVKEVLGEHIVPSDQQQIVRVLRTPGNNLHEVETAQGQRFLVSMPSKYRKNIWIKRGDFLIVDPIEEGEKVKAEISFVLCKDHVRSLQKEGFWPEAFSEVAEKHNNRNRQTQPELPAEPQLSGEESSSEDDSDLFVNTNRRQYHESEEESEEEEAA
UniProt Q9NZN4: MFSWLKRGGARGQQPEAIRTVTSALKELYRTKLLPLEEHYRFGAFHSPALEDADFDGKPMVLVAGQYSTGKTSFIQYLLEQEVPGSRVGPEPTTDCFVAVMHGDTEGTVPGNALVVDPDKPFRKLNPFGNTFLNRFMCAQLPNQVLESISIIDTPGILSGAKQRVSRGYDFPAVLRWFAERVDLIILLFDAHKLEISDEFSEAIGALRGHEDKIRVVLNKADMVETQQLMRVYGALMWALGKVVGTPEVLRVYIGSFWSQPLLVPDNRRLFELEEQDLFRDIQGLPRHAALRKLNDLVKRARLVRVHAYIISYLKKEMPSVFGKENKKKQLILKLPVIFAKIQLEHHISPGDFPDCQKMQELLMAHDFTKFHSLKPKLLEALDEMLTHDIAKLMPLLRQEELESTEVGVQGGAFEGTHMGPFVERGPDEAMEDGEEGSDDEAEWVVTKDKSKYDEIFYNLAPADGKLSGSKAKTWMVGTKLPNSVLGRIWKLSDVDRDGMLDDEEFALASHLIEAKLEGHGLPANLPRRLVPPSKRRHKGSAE
UniProt Q08426: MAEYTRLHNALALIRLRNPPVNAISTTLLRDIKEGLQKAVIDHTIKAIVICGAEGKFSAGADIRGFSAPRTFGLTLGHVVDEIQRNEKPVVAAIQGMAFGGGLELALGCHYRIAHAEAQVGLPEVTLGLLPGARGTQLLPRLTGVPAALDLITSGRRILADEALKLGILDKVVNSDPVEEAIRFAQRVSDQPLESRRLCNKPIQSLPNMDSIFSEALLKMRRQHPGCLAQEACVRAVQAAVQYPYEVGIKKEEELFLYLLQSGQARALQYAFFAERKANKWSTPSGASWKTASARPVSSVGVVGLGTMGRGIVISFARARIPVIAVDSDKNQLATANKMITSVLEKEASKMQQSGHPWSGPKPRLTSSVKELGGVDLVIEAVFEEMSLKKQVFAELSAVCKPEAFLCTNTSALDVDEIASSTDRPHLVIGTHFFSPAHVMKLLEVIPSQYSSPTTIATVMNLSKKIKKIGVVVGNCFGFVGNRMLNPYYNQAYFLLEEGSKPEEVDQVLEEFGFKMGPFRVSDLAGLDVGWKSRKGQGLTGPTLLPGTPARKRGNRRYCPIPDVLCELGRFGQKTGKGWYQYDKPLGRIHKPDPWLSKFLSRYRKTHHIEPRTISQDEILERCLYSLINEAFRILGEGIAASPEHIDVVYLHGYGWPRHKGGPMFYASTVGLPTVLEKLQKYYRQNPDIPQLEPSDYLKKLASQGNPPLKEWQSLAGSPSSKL
UniProt Q32P44: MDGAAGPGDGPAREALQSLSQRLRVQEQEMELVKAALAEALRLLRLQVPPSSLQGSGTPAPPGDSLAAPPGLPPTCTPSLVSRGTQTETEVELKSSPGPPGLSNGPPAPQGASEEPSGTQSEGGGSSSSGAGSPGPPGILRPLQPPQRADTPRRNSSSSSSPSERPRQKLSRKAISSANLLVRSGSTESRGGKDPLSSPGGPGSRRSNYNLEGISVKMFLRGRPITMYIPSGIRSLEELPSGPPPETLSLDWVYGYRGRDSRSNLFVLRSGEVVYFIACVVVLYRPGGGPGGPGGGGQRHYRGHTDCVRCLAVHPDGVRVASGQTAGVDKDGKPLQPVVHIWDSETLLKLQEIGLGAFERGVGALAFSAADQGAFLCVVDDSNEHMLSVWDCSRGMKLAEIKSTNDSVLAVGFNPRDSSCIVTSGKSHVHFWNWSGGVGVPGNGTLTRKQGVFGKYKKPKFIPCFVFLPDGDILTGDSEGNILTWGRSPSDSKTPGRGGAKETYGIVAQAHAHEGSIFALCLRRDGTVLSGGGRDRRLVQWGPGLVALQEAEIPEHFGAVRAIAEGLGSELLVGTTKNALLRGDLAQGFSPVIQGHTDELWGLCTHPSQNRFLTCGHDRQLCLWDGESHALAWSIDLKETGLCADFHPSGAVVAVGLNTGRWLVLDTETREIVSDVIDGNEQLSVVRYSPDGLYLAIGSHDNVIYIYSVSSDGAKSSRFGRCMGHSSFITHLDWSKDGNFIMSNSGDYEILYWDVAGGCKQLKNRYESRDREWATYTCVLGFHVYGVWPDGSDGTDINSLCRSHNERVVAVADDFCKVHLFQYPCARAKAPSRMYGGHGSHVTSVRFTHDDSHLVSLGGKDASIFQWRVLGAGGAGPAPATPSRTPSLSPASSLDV
UniProt P24534: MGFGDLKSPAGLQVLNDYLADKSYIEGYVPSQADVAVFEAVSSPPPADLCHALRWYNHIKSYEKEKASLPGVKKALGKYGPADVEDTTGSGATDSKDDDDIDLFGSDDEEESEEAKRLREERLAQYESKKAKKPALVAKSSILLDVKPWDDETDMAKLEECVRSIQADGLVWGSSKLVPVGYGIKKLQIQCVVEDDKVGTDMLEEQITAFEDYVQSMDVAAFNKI
UniProt O15371, whole entry, looked up: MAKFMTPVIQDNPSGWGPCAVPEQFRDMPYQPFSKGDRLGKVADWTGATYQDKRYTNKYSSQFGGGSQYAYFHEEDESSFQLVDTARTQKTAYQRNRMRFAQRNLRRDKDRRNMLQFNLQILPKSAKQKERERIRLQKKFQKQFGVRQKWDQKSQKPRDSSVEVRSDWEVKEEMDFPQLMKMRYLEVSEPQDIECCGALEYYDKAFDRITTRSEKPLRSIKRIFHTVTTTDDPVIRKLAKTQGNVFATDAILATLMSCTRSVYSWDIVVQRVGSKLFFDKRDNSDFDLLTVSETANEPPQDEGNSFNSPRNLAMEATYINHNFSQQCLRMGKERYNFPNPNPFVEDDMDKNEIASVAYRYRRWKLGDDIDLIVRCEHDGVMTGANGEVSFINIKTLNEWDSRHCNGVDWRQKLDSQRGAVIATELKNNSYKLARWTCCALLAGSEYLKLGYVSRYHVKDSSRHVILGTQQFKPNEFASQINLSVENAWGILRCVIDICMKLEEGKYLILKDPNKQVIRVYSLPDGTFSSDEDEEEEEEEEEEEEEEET
UniProt P06730, whole entry, looked up: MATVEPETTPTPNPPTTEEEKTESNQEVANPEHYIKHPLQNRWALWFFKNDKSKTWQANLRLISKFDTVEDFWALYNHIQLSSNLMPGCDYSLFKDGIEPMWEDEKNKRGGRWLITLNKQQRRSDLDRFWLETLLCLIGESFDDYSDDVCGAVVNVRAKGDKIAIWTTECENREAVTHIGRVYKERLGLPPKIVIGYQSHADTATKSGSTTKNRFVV
UniProt Q5J8M3, whole entry, looked up: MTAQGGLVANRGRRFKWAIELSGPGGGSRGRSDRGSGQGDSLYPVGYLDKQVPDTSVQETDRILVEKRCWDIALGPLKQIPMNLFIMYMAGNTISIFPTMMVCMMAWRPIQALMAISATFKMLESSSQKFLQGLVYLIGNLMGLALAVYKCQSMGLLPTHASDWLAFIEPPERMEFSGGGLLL
UniProt Q96KQ7: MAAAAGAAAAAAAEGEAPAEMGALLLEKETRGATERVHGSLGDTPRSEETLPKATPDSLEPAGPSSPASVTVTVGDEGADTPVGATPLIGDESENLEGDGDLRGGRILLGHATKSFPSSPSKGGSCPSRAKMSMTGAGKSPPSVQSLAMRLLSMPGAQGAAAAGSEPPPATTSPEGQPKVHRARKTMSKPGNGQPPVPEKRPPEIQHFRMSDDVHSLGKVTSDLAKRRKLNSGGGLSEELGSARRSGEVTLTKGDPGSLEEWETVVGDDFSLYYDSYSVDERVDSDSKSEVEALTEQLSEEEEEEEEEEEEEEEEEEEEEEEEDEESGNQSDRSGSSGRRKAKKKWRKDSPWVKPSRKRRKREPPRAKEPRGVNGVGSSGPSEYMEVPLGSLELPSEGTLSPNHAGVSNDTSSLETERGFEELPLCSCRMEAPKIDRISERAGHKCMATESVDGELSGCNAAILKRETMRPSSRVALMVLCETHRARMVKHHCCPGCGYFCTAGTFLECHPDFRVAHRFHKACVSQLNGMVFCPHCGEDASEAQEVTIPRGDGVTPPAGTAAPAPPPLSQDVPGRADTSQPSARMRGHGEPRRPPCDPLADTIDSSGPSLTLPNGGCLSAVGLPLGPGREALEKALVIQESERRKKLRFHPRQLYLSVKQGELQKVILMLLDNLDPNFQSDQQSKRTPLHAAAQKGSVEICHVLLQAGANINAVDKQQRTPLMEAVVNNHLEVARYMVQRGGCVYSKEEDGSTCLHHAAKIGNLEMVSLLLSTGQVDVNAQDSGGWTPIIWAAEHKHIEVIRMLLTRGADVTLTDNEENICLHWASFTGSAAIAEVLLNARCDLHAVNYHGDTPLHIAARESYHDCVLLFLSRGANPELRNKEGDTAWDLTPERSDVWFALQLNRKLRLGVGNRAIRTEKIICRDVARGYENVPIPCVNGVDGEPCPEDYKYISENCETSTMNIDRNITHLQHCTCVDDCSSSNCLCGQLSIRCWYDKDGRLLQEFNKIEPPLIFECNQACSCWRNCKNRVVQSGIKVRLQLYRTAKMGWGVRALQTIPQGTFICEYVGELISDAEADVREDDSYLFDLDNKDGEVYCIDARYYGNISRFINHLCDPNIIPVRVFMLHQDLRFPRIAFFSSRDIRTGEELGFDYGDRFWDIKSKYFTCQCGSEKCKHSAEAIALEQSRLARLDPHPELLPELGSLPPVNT

Columns and labels:
Assay in all cases: log2 fold change, soluble protein after heating vs DMSO (PISA); higher = thermal stabilisation; K562 cells, 10 uM, 30 min; active = over 0.2 and 3.5 SD of the protein, either way, in both replicates (recomputed)
bafetinib = compound: Cc1ccc(NC(=O)c2ccc(CN3CC[C@H](N(C)C)C3)c(C(F)(F)F)c2)cc1Nc1nccc(-c2cncnc2)n1 [bafetinib]
Outline: (§1)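 Soluble protein was defined as the supernatant after 21,000xg for 90 min. It came from K562 cells at 2×10^6 cells/mL given 10 μM compound for 30 min, heated in aliquots for 3 min across 48°C-58°C, pooled, and extracted in PBS with 0.5% NP-40 at 4°C, and was quantified by TMTpro 16plex LC-MS/MS with equalised channel sums. Thermal stability against control samples, from duplicates, is reported as log2 fold change.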

[1] = compound: Cc1cccc(CC(=O)N2CCc3c2ccc(-c2cn(C)c4ncnc(N)c24)c3F)n1
Outline: as §1

nilotinib = compound: Cc1cn(-c2cc(NC(=O)c3ccc(C)c(Nc4nccc(-c5cccnc5)n4)c3)cc(C(F)(F)F)c2)cn1 [nilotinib]
Outline: as §1

[2] = compound: Cc1nc(Nc2n[nH]c3c2CN(C(=O)N[C@H](CN(C)C)c2ccccc2)C3(C)C)c2sccc2n1
Outline: as §1

dasatinib = compound: Cc1nc(Nc2ncc(C(=O)Nc3c(C)cccc3Cl)s2)cc(N2CCN(CCO)CC2)n1 [dasatinib]
Outline: as §1

[3] = compound: Cc1ncc(-c2ccnc(Nc3ccc(S(C)(=O)=O)cc3)n2)n1C(C)C
Outline: as §1

[4] = compound: Cn1cc(-c2ccc3c(c2)CCN3C(=O)Cc2cccc(C(F)(F)F)c2)c2c(N)ncnc21
Outline: as §1

[5] = compound: Cn1cc(-c2ccc3nnc(C(F)(F)c4ccc5ncccc5c4)n3n2)cn1
Outline: as §1

tipifarnib = compound: Cn1cncc1[C@@](N)(c1ccc(Cl)cc1)c1ccc2c(c1)c(-c1cccc(Cl)c1)cc(=O)n2C [tipifarnib]
Outline: as §1

mubritinib = compound: FC(F)(F)c1ccc(/C=C/c2nc(COc3ccc(CCCCn4ccnn4)cc3)co2)cc1 [mubritinib]
Outline: as §1

Measured: log2 fold change

EIF4A1 (UniProt P60842)
inactive: bafetinib 0.032 | [1] 0.014 | nilotinib -0.135 | [2] -0.063 | dasatinib -0.114 | [3] -0.047 | [4] 0.036 | [5] -0.022 | tipifarnib -0.058 | mubritinib -0.08

ENO1 isoform 2 (UniProt P06733)
inactive: bafetinib -0.08 | [1] -0.047 | nilotinib 0.121 | [2] 0.053 | dasatinib 0.038 | [3] 0.075 | [4] 0.182 | [5] 0.001 | tipifarnib -0.137 | mubritinib 0.098

EMC2 (UniProt Q15006)
inactive: bafetinib 0.011 | [1] 0.046 | nilotinib -0.003 | [2] 0.003 | dasatinib -0.08 | [3] -0.022 | [4] 0.058 | [5] -0.025 | tipifarnib -0.037 | mubritinib 0.07

ELAVL1 isoform 2 (UniProt Q15717)
inactive: bafetinib 0.033 | [1] -0.051 | nilotinib -0.099 | [2] -0.1 | dasatinib 0.111 | [3] 0.257 | [4] -0.268 | [5] -0.228 | tipifarnib 0.008 | mubritinib -0.253

EEF1D isoform 2 (UniProt P29692)
inactive: bafetinib 0.025 | [1] -0.011 | nilotinib -0.066 | [2] -0.01 | dasatinib -0.051 | [3] 0 | [4] -0.007 | [5] -0.044 | tipifarnib -0.103 | mubritinib 0.081

ENDOD1 (UniProt O94919)
inactive: bafetinib -0.066 | [1] -0.096 | nilotinib -0.034 | [2] -0.019 | dasatinib 0.041 | [3] 0.016 | [4] -0.04 | [5] 0.053 | tipifarnib 0.043 | mubritinib 0.036

ENGASE (UniProt Q8NFI3)
inactive: bafetinib -0.066 | [1] -0.086 | nilotinib -0.03 | [2] -0.047 | dasatinib -0.098 | [3] -0.049 | [4] 0.021 | [5] -0.002 | tipifarnib 0.033 | mubritinib 0.026

EIF4H (UniProt Q15056)
inactive: bafetinib -0.024 | [1] 0.026 | nilotinib 0.004 | [2] -0.105 | dasatinib -0.056 | [3] -0.047 | [4] 0.016 | [5] -0.013 | tipifarnib -0.009 | mubritinib 0.015

EEF1A2 (UniProt Q05639)
inactive: bafetinib 0.003 | [1] -0.021 | nilotinib -0.033 | [2] 0.032 | dasatinib -0.065 | [3] -0.018 | [4] 0.067 | [5] 0.039 | tipifarnib -0.017 | mubritinib 0.013

EGLN1 (UniProt Q9GZT9)
inactive: bafetinib -0.031 | [1] -0.018 | nilotinib 0.066 | [2] -0.026 | dasatinib -0.073 | [3] -0.036 | [4] -0.01 | [5] 0.017 | tipifarnib 0.016 | mubritinib -0.116

EIF5 (UniProt P55010)
inactive: bafetinib -0.029 | [1] 0.002 | nilotinib -0.012 | [2] -0.013 | dasatinib -0.111 | [3] 0.014 | [4] 0.034 | [5] -0.002 | tipifarnib -0.055 | mubritinib 0.049

EIF1AD (UniProt Q8N9N8)
inactive: bafetinib -0.054 | [1] 0.003 | nilotinib -0.016 | [2] 0.011 | dasatinib 0.064 | [3] -0.028 | [4] 0.094 | [5] 0.009 | tipifarnib 0.004 | mubritinib 0.02

EHD2 (UniProt Q9NZN4)
inactive: bafetinib -0.051 | [1] 0.008 | nilotinib -0.062 | [2] 0.01 | dasatinib -0.112 | [3] 0.003 | [4] 0.012 | [5] -0.031 | tipifarnib -0.028 | mubritinib -0.061

EHHADH (UniProt Q08426)
inactive: bafetinib 0.019 | [1] 0.047 | nilotinib -0.081 | [2] -0.046 | dasatinib -0.012 | [3] 0.01 | [4] 0.056 | [5] -0.012 | tipifarnib 0.044 | mubritinib 0.074

EMC7 (UniProt Q9NPA0)
inactive: bafetinib -0.002 | [1] 0.002 | nilotinib 0.025 | [2] -0.005 | dasatinib 0.012 | [3] -0.012 | [4] 0.038 | [5] 0.04 | tipifarnib 0.007 | mubritinib 0.011

EML3 (UniProt Q32P44)
inactive: bafetinib 0.102 | [1] 0.087 | nilotinib -0.003 | [2] -0.023 | dasatinib 0.148 | [3] 0.049 | [4] -0.076 | [5] -0.361 | tipifarnib -0.004 | mubritinib 0.021

EEF1B2 (UniProt P24534)
inactive: bafetinib 0.006 | [1] 0.025 | nilotinib -0.042 | [2] -0.03 | dasatinib 0.026 | [3] 0.043 | [4] -0.057 | [5] -0.054 | tipifarnib -0.109 | mubritinib 0.058

EIF3D (UniProt O15371)
inactive: bafetinib 0.113 | [1] 0.029 | nilotinib -0.148 | [2] -0.07 | dasatinib -0.088 | [3] 0.058 | [4] -0.035 | [5] -0.08 | tipifarnib -0.111 | mubritinib -0.103

EFTUD2 (UniProt Q15029)
inactive: bafetinib -0.003 | [1] 0.017 | nilotinib 0.024 | [2] 0.034 | dasatinib 0.06 | [3] 0.005 | [4] -0.014 | [5] -0.021 | tipifarnib 0.007 | mubritinib 0.007

ELOB (UniProt Q15370)
inactive: bafetinib -0.046 | [1] -0.003 | nilotinib -0.003 | [2] -0.016 | dasatinib 0.032 | [3] -0.006 | [4] 0.052 | [5] 0.119 | tipifarnib -0.03 | mubritinib 0.025

EHBP1L1 (UniProt Q8N3D4)
inactive: bafetinib 0.194 | [1] -0.006 | nilotinib -0.081 | [2] -0.218 | dasatinib -0.123 | [3] 0.256 | [4] 0.005 | [5] 0.006 | tipifarnib -0.039 | mubritinib 0.007

ELOC (UniProt Q15369)
inactive: bafetinib 0.003 | [1] 0.014 | nilotinib -0.028 | [2] 0.013 | dasatinib 0.032 | [3] -0.003 | [4] 0.116 | [5] 0.049 | tipifarnib -0.027 | mubritinib 0.005

2 records drawn at random from the list so far:
EIF3D (UniProt O15371)
inactive: bafetinib 0.113 | [1] 0.029 | nilotinib -0.148 | [2] -0.07 | dasatinib -0.088 | [3] 0.058 | [4] -0.035 | [5] -0.08 | tipifarnib -0.111 | mubritinib -0.103

EHBP1L1 (UniProt Q8N3D4)
inactive: bafetinib 0.194 | [1] -0.006 | nilotinib -0.081 | [2] -0.218 | dasatinib -0.123 | [3] 0.256 | [4] 0.005 | [5] 0.006 | tipifarnib -0.039 | mubritinib 0.007

Later entries.

EHD4 (UniProt Q9H223)
inactive: bafetinib -0.075 | [1] 0.004 | nilotinib -0.096 | [2] -0.014 | dasatinib -0.065 | [3] -0.012 | [4] -0.011 | [5] -0.011 | tipifarnib -0.079 | mubritinib -0.017

ELOF1 (UniProt P60002)
inactive: bafetinib 0.093 | [1] 0.323 | nilotinib 0.014 | [2] 0.008 | dasatinib 0.285 | [3] 0.025 | [4] -0.038 | [5] -0.156 | tipifarnib 0.014 | mubritinib -0.143

EIF4E isoform 2 (UniProt P06730)
inactive: bafetinib 0.012 | [1] 0.05 | nilotinib 0.199 | [2] -0.072 | dasatinib 0.013 | [3] 0.272 | [4] 0.125 | [5] 0.082 | tipifarnib -0.029 | mubritinib 0.045

ENO1 (UniProt P06733)
inactive: bafetinib -0.014 | [1] -0.039 | nilotinib 0.048 | [2] -0.007 | dasatinib 0.027 | [3] -0.012 | [4] 0.044 | [5] 0.009 | tipifarnib -0.002 | mubritinib 0.018

EMC4 (UniProt Q5J8M3)
inactive: bafetinib -0.025 | [1] -0.001 | nilotinib 0.027 | [2] 0.009 | dasatinib -0.018 | [3] -0.034 | [4] 0.024 | [5] 0.083 | tipifarnib 0.014 | mubritinib 0.103

EHMT2 (UniProt Q96KQ7)
inactive: bafetinib -0.018 | [1] 0.002 | nilotinib 0.016 | [2] -0.053 | dasatinib -0.119 | [3] -0.027 | [4] -0.02 | [5] -0.033 | tipifarnib 0.103 | mubritinib 0.072

EIF3M (UniProt Q7L2H7)
inactive: bafetinib 0.055 | [1] 0.091 | nilotinib -0.032 | [2] -0.012 | dasatinib -0.05 | [3] 0.04 | [4] -0.063 | [5] -0.087 | tipifarnib -0.095 | mubritinib -0.058

EMC10 (UniProt Q5UCC4)
inactive: bafetinib -0.035 | [1] 0.019 | nilotinib 0.025 | [2] -0.018 | dasatinib -0.047 | [3] -0.031 | [4] 0.064 | [5] 0.144 | tipifarnib -0.07 | mubritinib 0.05
